Test results: patent US20110280809A1
Results are given in words; binding and its absence hold for the method and conditions named. In cells and extracts the contact can be indirect. Some results given as binding are weak or reduced against the parent protein; the word gives no strength.

By UniProt entry, the sequences of proteins in these tests, tags left out. Residues count along the entry.
UniProt P11021, residues 19-654: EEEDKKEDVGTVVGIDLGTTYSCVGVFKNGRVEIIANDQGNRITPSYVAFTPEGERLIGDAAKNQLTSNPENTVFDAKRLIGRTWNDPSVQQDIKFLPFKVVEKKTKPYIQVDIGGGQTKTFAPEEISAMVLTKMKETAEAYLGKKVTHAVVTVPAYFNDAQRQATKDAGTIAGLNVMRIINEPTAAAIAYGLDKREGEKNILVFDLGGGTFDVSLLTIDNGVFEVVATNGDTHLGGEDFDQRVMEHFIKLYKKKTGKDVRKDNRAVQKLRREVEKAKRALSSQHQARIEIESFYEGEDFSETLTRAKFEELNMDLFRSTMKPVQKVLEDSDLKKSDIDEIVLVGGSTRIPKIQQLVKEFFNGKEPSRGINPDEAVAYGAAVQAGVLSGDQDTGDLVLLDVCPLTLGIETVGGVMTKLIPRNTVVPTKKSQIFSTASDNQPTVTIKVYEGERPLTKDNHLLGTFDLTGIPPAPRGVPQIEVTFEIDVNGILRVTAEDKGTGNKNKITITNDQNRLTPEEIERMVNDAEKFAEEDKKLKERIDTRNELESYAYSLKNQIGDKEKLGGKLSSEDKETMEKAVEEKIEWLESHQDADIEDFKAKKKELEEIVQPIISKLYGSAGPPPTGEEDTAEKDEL

Legend:
[1] = molecular target: Hspa5 (endogenous protein of Jurkat cells) (human) (UniProt P11021); assay: co-immunoprecipitation from DSP-crosslinked Jurkat cells (referred back to)
[2] = molecular target: Hspa5 (endogenous protein of Jurkat cells) (human) (UniProt P11021); assay: co-immunoprecipitation with anti-Pdia4 antibody from DSP-crosslinked Jurkat cells, Western blot with anti-Hspa5
[3] = molecular target: Hspa5 (endogenous protein of Jurkat cells) (human) (UniProt P11021); assay: co-immunoprecipitation with anti-Pdia4 antibody from DSP-crosslinked Jurkat cells, Western blot with anti-Hspa5 or anti-Pdia4

Measured: binding

B1: Pdia4 (endogenous protein of Jurkat cells) (enzyme, human, UniProt P13667 21-645, looked up)
chain: VAGAEGPDEDSSNRENAIEDEEEEEEEDDDEEEDDLEVKEENGVLVLNDANFDNFVADKDTVLLEFYAPWCGHCKQFAPEYEKIANILKDKDPPIPVAKIDATSASVLASRFDVSGYPTIKILKKGQAVDYEGSRTQEEIVAKVREVSQPDWTPPPEVTLVLTKENFDEVVNDADIILVEFYAPWCGHCKKLAPEYEKAAKELSKRSPPIPLAKVDATAETDLAKRFDVSGYPTLKIFRKGRPYDYNGPREKYGIVDYMIEQSGPPSKEILTLKQVQEFLKDGDDVIIIGVFKGESDPAYQQYQDAANNLREDYKFHHTFSTEIAKFLKVSQGQLVVMQPEKFQSKYEPRSHMMDVQGSTQDSAIKDFVLKYALPLVGHRKVSNDAKRYTRRPLVVVYYSVDFSFDYRAATQFWRSKVLEVAKDFPEYTFAIADEEDYAGEVKDLGLSESGEDVNAAILDESGKKFAMEPEEFDSDTLREFVTAFKKGKLKPVIKSQPVPKNNKGPVKVVVGKTFDSIVMDPKKDVLIEFYAPWCGHCKQLEPVYNSLAKKYKGQKGLVIAKMDATANDVPSDRYKVEGFPTIYFAPSGDKKNPVKFEGGDRDLEHLSKFIEEHATKLSRTKEEL
binds: all assays above
